Strings that start with PEPTIDE1 are HELM notation: dots part the residues, brackets hold end groups and non-standard residues.
Test: peptide made by a vendor
Conditions: whole synthesis

PEPTIDE1{[PTX2O-malonyl].P.V.G.L.I.G.R.R.L.S.Y.S.R.R.R.F}$$$$V2.0
isolated yield: 87.9%

Source: article PMC7856885 (Advanced Science, 2020)
